The record followed here is the supplement of paper PMC10849652.

Protein sequences, listed by entry. Tags and fused reporters are not part of them. Lines headed by an entry give the natural chain unless they say otherwise; changes in a name come on top.
UniProt P0DPB6, whole entry, looked up: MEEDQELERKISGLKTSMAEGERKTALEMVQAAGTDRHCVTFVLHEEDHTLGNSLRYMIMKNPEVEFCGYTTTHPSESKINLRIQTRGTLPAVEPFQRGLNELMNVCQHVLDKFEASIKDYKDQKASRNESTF
UniProt Q8N490: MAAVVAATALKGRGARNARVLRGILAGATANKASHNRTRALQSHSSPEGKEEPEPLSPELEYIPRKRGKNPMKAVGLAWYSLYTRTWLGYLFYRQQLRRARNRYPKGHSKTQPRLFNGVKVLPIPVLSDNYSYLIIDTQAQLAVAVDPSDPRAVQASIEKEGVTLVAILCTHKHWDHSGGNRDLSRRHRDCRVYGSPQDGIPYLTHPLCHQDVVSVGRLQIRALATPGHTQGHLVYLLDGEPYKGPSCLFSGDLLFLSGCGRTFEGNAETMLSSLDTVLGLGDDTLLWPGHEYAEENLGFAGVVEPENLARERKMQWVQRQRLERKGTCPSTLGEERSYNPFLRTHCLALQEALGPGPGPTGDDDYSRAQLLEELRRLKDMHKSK
UniProt O15305: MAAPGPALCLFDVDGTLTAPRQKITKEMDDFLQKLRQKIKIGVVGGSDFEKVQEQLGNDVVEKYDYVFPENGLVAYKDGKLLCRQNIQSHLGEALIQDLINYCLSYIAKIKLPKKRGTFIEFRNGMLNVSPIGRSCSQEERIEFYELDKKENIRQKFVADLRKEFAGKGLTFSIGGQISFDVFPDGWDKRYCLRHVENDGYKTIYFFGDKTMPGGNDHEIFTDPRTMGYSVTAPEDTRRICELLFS
UniProt Q13136: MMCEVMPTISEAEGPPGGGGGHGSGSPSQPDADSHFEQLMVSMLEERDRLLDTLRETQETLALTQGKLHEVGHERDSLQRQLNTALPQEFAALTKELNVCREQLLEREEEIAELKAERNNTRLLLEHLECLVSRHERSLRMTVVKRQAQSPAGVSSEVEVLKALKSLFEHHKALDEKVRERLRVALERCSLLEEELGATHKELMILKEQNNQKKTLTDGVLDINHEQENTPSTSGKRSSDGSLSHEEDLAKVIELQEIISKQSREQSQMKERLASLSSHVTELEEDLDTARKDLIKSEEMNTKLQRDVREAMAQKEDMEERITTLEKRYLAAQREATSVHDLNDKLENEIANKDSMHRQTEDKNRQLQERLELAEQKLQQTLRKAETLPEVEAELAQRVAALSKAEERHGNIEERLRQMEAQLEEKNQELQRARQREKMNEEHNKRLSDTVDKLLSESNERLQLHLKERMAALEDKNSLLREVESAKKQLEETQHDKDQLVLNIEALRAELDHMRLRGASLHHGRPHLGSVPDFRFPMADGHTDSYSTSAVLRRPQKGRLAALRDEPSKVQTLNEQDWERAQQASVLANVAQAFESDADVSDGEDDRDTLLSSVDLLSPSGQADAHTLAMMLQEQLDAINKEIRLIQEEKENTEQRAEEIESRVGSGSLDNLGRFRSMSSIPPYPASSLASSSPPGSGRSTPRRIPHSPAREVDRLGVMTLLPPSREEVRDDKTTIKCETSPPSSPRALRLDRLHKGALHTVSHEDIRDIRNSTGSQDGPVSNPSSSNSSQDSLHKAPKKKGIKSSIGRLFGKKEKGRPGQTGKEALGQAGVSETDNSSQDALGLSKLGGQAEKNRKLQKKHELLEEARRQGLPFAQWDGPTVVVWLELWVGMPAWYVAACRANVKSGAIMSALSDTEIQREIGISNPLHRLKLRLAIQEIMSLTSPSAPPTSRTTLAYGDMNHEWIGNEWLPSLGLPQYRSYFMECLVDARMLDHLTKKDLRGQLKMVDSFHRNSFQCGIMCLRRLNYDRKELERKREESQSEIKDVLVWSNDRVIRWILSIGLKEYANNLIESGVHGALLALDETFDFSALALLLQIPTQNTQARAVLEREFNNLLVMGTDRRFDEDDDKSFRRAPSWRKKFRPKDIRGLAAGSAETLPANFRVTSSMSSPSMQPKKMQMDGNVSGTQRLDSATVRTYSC
UniProt Q14181: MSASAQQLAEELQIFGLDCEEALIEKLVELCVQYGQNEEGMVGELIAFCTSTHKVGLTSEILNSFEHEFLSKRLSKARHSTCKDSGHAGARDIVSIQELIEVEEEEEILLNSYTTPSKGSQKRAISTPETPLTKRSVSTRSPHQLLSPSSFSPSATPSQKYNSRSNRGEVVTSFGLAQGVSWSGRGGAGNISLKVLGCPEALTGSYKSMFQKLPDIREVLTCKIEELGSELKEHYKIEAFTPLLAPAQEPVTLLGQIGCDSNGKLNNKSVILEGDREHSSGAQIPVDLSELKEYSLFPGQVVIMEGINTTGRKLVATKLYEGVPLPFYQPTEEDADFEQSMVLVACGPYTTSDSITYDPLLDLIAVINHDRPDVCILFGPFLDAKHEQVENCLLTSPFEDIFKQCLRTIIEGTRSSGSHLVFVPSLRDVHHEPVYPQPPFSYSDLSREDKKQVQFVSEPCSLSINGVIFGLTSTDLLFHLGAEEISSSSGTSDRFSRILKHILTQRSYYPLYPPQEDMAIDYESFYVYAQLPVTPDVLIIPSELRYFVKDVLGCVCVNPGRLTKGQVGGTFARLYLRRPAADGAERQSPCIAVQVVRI
UniProt Q9NUX5: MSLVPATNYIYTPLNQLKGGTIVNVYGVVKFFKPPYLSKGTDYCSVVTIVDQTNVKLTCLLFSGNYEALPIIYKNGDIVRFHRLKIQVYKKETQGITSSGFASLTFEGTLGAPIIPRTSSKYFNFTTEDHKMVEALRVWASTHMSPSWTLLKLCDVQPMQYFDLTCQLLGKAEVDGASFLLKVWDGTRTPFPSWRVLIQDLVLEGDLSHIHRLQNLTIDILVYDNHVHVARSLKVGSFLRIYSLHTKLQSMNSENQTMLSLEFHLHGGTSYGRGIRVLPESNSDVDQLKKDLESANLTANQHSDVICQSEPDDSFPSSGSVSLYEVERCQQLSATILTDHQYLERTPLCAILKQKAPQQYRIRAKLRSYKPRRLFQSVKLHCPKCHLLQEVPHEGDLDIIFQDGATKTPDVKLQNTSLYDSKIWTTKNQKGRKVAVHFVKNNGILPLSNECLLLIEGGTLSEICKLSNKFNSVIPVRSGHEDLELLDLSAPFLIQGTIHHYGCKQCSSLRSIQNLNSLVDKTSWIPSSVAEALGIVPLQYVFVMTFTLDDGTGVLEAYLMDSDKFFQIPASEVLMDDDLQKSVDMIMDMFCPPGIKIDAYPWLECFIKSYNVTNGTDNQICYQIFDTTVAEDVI
UniProt Q8TF01: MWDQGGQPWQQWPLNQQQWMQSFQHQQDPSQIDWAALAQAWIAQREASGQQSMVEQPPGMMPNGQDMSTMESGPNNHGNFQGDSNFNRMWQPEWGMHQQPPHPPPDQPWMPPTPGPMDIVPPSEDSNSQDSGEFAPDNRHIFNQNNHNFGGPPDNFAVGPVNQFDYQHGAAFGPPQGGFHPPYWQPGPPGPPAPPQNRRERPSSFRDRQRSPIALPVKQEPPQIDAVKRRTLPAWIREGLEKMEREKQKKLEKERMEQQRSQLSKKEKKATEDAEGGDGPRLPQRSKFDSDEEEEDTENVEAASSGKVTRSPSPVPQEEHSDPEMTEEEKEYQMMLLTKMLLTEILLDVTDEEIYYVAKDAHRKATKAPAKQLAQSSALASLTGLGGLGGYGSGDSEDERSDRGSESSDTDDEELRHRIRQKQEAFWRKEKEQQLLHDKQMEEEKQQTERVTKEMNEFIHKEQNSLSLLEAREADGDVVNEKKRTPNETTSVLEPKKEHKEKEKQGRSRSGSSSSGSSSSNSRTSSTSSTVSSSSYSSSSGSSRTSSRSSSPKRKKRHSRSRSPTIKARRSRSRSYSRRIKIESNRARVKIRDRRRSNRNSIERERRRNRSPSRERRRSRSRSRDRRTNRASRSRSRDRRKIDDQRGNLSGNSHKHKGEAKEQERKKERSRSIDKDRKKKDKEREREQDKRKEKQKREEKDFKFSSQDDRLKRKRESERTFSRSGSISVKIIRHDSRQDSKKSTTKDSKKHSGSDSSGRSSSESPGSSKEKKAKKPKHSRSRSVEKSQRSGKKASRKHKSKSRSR
UniProt O95707: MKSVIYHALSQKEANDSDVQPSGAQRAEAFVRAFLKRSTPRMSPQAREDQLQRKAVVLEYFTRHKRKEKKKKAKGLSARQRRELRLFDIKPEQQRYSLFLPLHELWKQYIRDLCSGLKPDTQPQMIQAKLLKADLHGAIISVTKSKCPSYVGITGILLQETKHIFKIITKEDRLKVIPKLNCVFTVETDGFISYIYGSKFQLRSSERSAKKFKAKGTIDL
UniProt Q9Y535: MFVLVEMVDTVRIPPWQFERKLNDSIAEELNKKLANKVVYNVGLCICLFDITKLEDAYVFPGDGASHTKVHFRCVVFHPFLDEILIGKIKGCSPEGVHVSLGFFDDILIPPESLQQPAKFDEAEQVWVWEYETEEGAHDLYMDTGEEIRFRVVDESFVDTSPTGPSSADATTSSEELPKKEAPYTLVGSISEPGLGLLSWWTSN
UniProt O15318: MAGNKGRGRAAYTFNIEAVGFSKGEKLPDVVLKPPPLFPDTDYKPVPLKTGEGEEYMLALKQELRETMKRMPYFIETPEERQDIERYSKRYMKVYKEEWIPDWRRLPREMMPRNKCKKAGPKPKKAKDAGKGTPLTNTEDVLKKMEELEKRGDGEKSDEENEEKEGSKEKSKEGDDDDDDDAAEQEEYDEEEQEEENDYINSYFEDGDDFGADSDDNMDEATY
UniProt Q9P215: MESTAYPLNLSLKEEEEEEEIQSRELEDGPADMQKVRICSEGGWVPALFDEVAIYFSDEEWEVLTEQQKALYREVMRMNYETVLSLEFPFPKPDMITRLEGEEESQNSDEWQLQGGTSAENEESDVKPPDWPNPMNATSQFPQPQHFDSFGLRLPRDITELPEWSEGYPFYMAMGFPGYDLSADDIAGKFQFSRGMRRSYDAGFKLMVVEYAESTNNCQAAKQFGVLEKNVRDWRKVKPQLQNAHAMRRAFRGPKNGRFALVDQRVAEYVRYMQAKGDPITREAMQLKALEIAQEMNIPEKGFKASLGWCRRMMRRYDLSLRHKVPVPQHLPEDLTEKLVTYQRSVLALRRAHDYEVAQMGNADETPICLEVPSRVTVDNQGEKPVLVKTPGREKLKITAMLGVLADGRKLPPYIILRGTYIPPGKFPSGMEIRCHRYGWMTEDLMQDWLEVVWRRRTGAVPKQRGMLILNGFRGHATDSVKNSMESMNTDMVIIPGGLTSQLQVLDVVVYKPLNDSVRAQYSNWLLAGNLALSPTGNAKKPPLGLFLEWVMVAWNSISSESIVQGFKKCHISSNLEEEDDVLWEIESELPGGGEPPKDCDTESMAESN
UniProt P62937, whole entry, looked up: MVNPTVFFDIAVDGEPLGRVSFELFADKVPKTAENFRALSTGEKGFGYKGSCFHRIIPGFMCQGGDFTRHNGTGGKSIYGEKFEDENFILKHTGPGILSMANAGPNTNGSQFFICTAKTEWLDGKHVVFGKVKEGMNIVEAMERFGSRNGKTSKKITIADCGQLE
UniProt Q9H2U2: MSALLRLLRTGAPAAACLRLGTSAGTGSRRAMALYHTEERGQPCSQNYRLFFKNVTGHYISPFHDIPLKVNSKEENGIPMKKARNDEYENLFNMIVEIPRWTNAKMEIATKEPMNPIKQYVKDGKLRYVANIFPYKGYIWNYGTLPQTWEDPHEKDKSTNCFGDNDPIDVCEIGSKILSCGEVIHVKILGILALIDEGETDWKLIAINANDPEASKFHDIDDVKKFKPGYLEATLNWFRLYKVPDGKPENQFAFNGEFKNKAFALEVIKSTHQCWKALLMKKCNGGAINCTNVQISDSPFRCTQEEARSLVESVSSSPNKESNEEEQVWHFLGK
UniProt Q15063: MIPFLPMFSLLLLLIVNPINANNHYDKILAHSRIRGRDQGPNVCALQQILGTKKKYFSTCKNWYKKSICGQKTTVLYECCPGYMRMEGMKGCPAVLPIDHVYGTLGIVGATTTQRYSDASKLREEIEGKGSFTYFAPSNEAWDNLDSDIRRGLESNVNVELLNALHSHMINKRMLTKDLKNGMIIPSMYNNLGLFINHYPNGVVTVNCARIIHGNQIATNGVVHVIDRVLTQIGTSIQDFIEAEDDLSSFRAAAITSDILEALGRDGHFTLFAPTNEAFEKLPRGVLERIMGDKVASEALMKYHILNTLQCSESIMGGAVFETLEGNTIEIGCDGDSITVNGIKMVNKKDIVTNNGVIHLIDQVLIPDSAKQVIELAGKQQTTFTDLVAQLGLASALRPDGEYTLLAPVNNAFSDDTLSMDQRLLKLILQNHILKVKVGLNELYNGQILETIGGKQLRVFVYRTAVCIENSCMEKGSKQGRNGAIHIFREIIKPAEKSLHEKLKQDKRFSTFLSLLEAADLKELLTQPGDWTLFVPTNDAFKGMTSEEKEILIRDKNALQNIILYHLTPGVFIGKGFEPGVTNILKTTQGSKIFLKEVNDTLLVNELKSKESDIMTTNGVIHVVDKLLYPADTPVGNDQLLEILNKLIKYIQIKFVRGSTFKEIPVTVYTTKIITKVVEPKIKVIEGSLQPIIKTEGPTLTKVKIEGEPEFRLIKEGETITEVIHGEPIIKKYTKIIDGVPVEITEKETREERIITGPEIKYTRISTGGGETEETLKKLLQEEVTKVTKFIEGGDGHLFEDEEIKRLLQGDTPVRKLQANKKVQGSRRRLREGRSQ

Some of the results follow.

Compound in the first experiment: C1=CC(=CC=C1C2=NC3=C(N2)C=C(C=C3)C(=O)N)OC4=CC=C(C=C4)Cl
Nature of the experiment: log2 fold change, soluble protein after heating vs DMSO (PISA); higher = thermal stabilisation; K562 lysate, 10 uM; active = over 0.2 and 3.5 SD of the protein, either way, in both replicates (recomputed). Put shortly: (§1)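 A 30 min treatment with 10 μM compound was applied to crude K562 extract at 1 mg/mL protein in PBS pH 7.4 with 1 mM MgCl2. Heating for 3 min spanned 48°C-58°C, after which aliquots were pooled, adjusted to 0.5% NP-40 at 4°C and spun at 21,000xg for 90 min. TMTpro 16plex LC-MS/MS of the supernatant, with channel sums equalised, gave values recorded as log-two fold change in thermal stability against solvent controls, from duplicates.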
As for POLD1 (UniProt P28340), the log2 fold change was inactive: 0.013.

Regarding POLR1D (UniProt P0DPB6), the log2 fold change was inactive: 0.037.

Turning to POLR2G (UniProt P62487), the log2 fold change was inactive: 0.044.

PNKD isoform 2 (UniProt Q8N490): the log2 fold change was inactive: 0.143.

Regarding POP1 (UniProt Q99575), the log2 fold change was inactive: 0.004.

Consider POLR2B (UniProt P30876), for which the log2 fold change is inactive: -0.014.

As for POGLUT2 (UniProt Q6UW63), the log2 fold change is inactive: -0.038.

PLXNA1 (UniProt Q9UIW2): the log2 fold change is inactive: -0.034.

As for PPIB (UniProt P23284), the log2 fold change is inactive: 0.008.

With POLR1B isoform 3 (UniProt Q9H9Y6), the log2 fold change was inactive: -0.029.

With PMF1 (UniProt Q6P1K2), the log2 fold change was inactive: 0.031.

For the target PLXNB2 (UniProt O15031), the log2 fold change is inactive: -0.013.

PNKD (UniProt Q8N490): the log2 fold change is inactive: 0.05.

As to PPFIA2 (UniProt O75334), the log2 fold change is inactive: 0.02.

Consider POP5 (UniProt Q969H6), for which the log2 fold change was inactive: -0.024.

Consider POLR2H (UniProt P52434), for which the log2 fold change was inactive: 0.036.

POLD3 (UniProt Q15054): the log2 fold change is inactive: -0.006.

As to PMM2 (UniProt O15305), the log2 fold change was inactive: -0.041.

As to POLD2 (UniProt P49005), the log2 fold change was inactive: 0.

On to PNPLA2 (UniProt Q96AD5), for which the log2 fold change is inactive: -0.016.

PPFIA1 (UniProt Q13136): the log2 fold change was inactive: 0.02.

Consider POLA2 (UniProt Q14181), for which the log2 fold change is inactive: 0.037.

Turning to POT1 (UniProt Q9NUX5), the log2 fold change was inactive: -0.121.

Turning to PNISR (UniProt Q8TF01), the log2 fold change was inactive: 0.022.

Consider PMPCA (UniProt Q10713), for which the log2 fold change was inactive: 0.073.

POP4 (UniProt O95707): the log2 fold change is inactive: 0.033.

As to PLOD1 (UniProt Q02809), the log2 fold change was inactive: -0.002.

With POLR3B (UniProt Q9NW08), the log2 fold change is inactive: -0.003.

In the case of PMM1 (UniProt Q92871), the log2 fold change was inactive: 0.048.

For POLR3H (UniProt Q9Y535), the log2 fold change was inactive: 0.064.

For POLR3G (UniProt O15318), the log2 fold change is inactive: -0.026.

Take POGK (UniProt Q9P215): the log2 fold change is inactive: 0.034.

For PPIA (UniProt P62937), the log2 fold change was inactive: 0.002.

Regarding PPA2 (UniProt Q9H2U2), the log2 fold change was inactive: 0.025.

POSTN (UniProt Q15063): the log2 fold change is inactive: 0.057.

Turning to PPAN isoform 3 (UniProt Q9NQ55), the log2 fold change was inactive: -0.008.

On to PNPLA6 (UniProt Q8IY17), for which the log2 fold change was inactive: 0.048.

On to POLE3 (UniProt Q9NRF9), for which the log2 fold change is inactive: 0.009.

Compound in a further experiment: C1=CC2=C(C=CC(=C2)/C=C\3/C(=O)NC(=NCC4=CC=CS4)S3)N=C1
The description is as above. The essentials:
as §1
In the case of POLD1 (UniProt P28340), the log2 fold change is inactive: 0.008.

In the case of POLR1D (UniProt P0DPB6), the log2 fold change is inactive: 0.004.

Take POLR2G (UniProt P62487): the log2 fold change was inactive: -0.005.

In the case of PNKD isoform 2 (UniProt Q8N490), the log2 fold change was inactive: 0.036.

Take POP1 (UniProt Q99575): the log2 fold change is inactive: -0.003.

Turning to POLR2B (UniProt P30876), the log2 fold change was inactive: 0.012.

For the target POGLUT2 (UniProt Q6UW63), the log2 fold change is inactive: 0.021.

PLXNA1 (UniProt Q9UIW2): the log2 fold change is inactive: -0.01.

Take PPIB (UniProt P23284): the log2 fold change is inactive: -0.042.

Consider POLR1B isoform 3 (UniProt Q9H9Y6), for which the log2 fold change was inactive: 0.048.

PMF1 (UniProt Q6P1K2): the log2 fold change is inactive: 0.038.

Regarding PLXNB2 (UniProt O15031), the log2 fold change is inactive: -0.04.

Consider PNKD (UniProt Q8N490), for which the log2 fold change is inactive: 0.116.

Consider PPFIA2 (UniProt O75334), for which the log2 fold change was inactive: -0.004.

On to POP5 (UniProt Q969H6), for which the log2 fold change was inactive: 0.016.

For POLR2H (UniProt P52434), the log2 fold change was inactive: -0.001.

With POLD3 (UniProt Q15054), the log2 fold change is inactive: -0.003.

Turning to PMM2 (UniProt O15305), the log2 fold change is inactive: -0.015.

As for POLD2 (UniProt P49005), the log2 fold change was inactive: 0.056.

On to PNPLA2 (UniProt Q96AD5), for which the log2 fold change is inactive: 0.098.

As to PPFIA1 (UniProt Q13136), the log2 fold change is inactive: 0.011.

For the target POLA2 (UniProt Q14181), the log2 fold change was inactive: -0.015.

As for POT1 (UniProt Q9NUX5), the log2 fold change is inactive: 0.194.

With PNISR (UniProt Q8TF01), the log2 fold change was inactive: 0.014.

For PMPCA (UniProt Q10713), the log2 fold change was inactive: 0.008.

For the target POP4 (UniProt O95707), the log2 fold change is inactive: -0.008.

For the target PLOD1 (UniProt Q02809), the log2 fold change was inactive: 0.014.

As for POLR3B (UniProt Q9NW08), the log2 fold change is inactive: 0.

PMM1 (UniProt Q92871): the log2 fold change was inactive: 0.022.

For the target POLR3H (UniProt Q9Y535), the log2 fold change is inactive: 0.047.

With POLR3G (UniProt O15318), the log2 fold change was inactive: 0.037.

POGK (UniProt Q9P215): the log2 fold change was inactive: -0.059.

PPIA (UniProt P62937): the log2 fold change was inactive: -0.025.

Turning to PPA2 (UniProt Q9H2U2), the log2 fold change was inactive: -0.018.

Regarding POSTN (UniProt Q15063), the log2 fold change is inactive: -0.026.

On to PPAN isoform 3 (UniProt Q9NQ55), for which the log2 fold change was inactive: 0.006.

Consider PNPLA6 (UniProt Q8IY17), for which the log2 fold change is inactive: -0.032.

Take POLE3 (UniProt Q9NRF9): the log2 fold change was inactive: -0.017.
